Source: paper PMC8784754
Construct, isoform or probe ends are uncertain for at least one entry. For some of these results: Negatives hold for the conditions tested. For some of these results: At least one verdict was read from the data and is not stated in words by the source.

Experiments:
GST-CsWRKY25-C [1] = assay: EMSA; conditions: cold probe competes; Chemiluminescent EMSA Kit (Beyotime); recombinant protein; protein details: GST (N-terminal, pGEX-6p-1); label: biotin
GST-CsWRKY25-C [2] = assay: competition with a labelled probe; conditions: Chemiluminescent EMSA Kit (Beyotime), recombinant protein, protein details: GST (N-terminal, pGEX-6p-1)
GST = assay: EMSA; conditions: GST only control; Chemiluminescent EMSA Kit (Beyotime); recombinant protein; protein details: GST; label: biotin

Sequence: AGTTGAGGGAGAAGTCAATTGTGTTTCGCAAATAGTCAAAAAAAAAATAAATTGAT (double strand) [CsRbohB probe]
- binding result (GST-CsWRKY25-C [1]): binds

Sequence: AGTTGAGGGAGAATTTTTTTGTGTTTCGCAAATATTTTTAAAAAAAATAAATTGAT / ATCAATTTATTTTTTTTTAAAAAATTTGCGAAACACAATAAAAATCTCCCTCAACT [CsRbohB mutant probe]
- binding result (GST-CsWRKY25-C [2]; mutant competitor up to 100-fold vs N3): no binding

Sequence: TTACTAATTTGAAAAATTTGCTCGGCTTTGGTTGAAATGT (double strand) [CsPR10 mutant probe]
- binding result (GST-CsWRKY25-C [2]; mutant competitor up to 100-fold vs N5): no binding

Sequence: TTACTAATTTGTTGACTTTGCTCGGCTTTGGTTGAAATGT (double strand) [CsPR10 probe]
- binding result (GST-CsWRKY25-C [1]): binds

Sequence: TTCTCTAAAAAATTCAGCTATATAAACAGTCAATGTGTCATTTTAATTGGATTACAC (double strand) [CsRbohD probe]
- binding result (GST): no binding
- binding result (GST-CsWRKY25-C [1]): binds

Sequence: TTCTCTAAAAAATTCAGCTATATAAACATTTTTTGTTTTTTTTTAATTGGATTACAC (double strand) [CsRbohD mutant probe]
- binding result (GST-CsWRKY25-C [2]; mutant competitor up to 100-fold vs N1): no binding
